Laboratory results as given in patent US7879861B2, “Combi-molecules having EGFR and DNA targeting properties” (priority 2005, dated 2011).
At least one structure is not confirmed: it was looked up by name or label, or the drawing left a doubt.

Tests used:
[1] = NBP alkylation assay, mass spectrometry; details: 37° C., Tris buffer pH 7.5, 4 h and 22 h
[2] = tested on: DU145; assay: Growth inhibition in androgen independent prostate cancer cell line; details: FIG. 15

| Compound | NBP alkylation products [1] | IC50, growth inhibition in DU145 [2] |
| --- | --- | --- |
| Clc1cccc(Nc2ncnc3ccc(N=NNCc4ccccc4CNN=Nc4ccc5ncnc(Nc6cccc(Cl)c6)c5c4)cc23)c1 [Double-arm combi-triazene 5] | No alkylated product was observed | do not show any significant potency |
| Clc1cccc(Nc2ncnc3ccc(N=NNCc4ccc(CNN=Nc5ccc6ncnc(Nc7cccc(Cl)c7)c6c5)cc4)cc23)c1 [Double-arm combi-triazene 6] | No alkylated product was observed | do not show any significant potency |
| CN(CCNN=Nc1ccc2ncnc(Nc3cccc(Cl)c3)c2c1)CCNN=Nc1ccc2ncnc(Nc3cccc(Cl)c3)c2c1 [Double-arm combi-triazene 9] | bis-alkylated NBP |  |
